Test in all cases: PRISMA enrichment of interactor (LFQ) in peptide spot vs all other peptide spots (log2 fold change); higher = stronger / more specific binding of the interactor to the peptide
For one experiment, the target named is EIF2S2, P20042. As to the method: (§1)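 PRISMA: 15-aa overlapping tiles (offset 8 aa) of 60 microproteins, plus SOS1/GLUT1 control peptides, were spot-synthesized on cellulose membranes in triplicate. Membranes were incubated with benzonase-treated HEK293T lysate, and bound proteins were identified by LC-MS/MS with LFQ. Enrichment is the log2 fold change of each protein in one spot versus all other spots. Only interactors passing the significance cutoff are listed.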

The chains behind the UniProt entries cited, without tags or fusion partners.
EIF2S2, P20042, UniProt P20042, whole entry: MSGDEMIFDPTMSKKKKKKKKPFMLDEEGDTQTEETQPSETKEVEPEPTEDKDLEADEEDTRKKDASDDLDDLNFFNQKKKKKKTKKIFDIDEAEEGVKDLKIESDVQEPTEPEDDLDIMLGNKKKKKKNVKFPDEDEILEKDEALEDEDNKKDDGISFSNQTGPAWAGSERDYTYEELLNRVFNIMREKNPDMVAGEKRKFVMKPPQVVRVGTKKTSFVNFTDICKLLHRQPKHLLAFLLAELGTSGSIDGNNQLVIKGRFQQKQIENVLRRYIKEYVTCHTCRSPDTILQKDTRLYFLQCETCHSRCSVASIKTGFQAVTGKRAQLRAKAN
FAM168B, A1KXE4, UniProt A1KXE4, whole entry: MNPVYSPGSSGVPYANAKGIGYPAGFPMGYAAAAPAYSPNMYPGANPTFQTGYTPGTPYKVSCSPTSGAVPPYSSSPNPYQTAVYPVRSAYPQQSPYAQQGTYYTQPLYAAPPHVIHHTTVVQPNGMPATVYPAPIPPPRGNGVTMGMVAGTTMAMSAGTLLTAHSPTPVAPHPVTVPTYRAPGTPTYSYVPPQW
GNB1, P62873, UniProt P62873, whole entry: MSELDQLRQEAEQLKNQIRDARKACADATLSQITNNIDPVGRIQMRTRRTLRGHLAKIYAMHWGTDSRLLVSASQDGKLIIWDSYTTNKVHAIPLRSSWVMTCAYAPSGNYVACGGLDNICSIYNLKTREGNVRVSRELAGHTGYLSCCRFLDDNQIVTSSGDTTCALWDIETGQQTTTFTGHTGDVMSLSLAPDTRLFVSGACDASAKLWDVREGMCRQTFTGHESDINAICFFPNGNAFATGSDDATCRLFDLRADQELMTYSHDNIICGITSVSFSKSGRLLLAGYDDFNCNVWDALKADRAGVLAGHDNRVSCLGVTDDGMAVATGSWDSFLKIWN
PCBP2, Q15366, UniProt Q15366, whole entry: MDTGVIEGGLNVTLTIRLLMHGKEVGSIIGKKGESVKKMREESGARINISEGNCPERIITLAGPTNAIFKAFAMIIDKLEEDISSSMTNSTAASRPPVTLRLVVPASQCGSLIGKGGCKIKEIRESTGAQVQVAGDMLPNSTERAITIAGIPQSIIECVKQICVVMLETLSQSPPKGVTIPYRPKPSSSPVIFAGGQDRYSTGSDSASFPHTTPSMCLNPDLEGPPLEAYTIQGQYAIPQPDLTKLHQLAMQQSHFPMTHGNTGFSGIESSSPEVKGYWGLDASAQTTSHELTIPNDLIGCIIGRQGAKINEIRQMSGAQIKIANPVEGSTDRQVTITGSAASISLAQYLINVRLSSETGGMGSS
EIF1, P41567, UniProt P41567, whole entry: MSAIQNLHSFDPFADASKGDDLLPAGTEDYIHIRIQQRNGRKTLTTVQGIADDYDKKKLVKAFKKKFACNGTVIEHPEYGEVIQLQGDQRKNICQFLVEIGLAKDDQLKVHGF
PARK7, Q99497, UniProt Q99497, whole entry: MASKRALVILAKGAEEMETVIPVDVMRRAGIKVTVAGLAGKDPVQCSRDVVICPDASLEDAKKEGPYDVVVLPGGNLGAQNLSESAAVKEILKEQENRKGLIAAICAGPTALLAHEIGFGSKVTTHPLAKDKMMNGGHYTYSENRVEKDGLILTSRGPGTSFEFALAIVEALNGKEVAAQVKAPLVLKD
LARP4, Q71RC2, UniProt Q71RC2, whole entry: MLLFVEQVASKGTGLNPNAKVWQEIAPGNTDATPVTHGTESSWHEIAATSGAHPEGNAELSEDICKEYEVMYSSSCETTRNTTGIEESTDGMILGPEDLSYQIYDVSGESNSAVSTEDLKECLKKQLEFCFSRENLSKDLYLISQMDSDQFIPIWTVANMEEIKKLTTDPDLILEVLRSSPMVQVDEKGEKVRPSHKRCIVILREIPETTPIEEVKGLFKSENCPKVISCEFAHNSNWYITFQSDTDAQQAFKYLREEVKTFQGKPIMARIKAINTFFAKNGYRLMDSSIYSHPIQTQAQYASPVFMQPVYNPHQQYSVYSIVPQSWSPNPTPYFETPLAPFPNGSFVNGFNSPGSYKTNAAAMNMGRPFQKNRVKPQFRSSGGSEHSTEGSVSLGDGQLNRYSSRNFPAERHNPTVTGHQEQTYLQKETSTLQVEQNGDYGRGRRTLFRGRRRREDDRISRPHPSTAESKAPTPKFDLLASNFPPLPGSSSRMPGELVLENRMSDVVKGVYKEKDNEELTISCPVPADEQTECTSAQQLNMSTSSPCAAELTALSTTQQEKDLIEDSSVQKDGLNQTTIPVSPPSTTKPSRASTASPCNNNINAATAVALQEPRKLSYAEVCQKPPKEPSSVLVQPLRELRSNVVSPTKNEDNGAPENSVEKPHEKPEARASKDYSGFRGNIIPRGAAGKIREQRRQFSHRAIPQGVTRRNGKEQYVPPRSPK
UBQLN1, Q9UMX0, UniProt Q9UMX0, whole entry: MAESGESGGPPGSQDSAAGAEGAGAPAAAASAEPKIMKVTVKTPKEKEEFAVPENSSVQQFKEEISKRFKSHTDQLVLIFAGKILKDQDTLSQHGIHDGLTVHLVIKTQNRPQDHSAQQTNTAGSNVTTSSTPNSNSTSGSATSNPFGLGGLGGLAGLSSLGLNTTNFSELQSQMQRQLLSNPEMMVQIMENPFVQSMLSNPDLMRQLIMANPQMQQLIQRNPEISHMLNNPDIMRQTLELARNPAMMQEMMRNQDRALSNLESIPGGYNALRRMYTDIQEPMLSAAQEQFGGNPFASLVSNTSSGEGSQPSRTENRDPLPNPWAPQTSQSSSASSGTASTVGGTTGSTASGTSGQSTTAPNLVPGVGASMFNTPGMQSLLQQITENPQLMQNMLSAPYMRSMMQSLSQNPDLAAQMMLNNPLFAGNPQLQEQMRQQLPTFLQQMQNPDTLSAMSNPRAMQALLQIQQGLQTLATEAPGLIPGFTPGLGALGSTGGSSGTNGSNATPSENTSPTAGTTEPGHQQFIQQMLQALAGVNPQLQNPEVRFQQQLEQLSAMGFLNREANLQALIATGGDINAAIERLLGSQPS

The target in a further experiment is MRPS11, P82912. The procedure: as §1
For a further experiment, the target named is TACO1, Q9BSH4. As to the method: as §1
Another experiment addresses FAM168B, A1KXE4. The procedure: as §1
A further experiment addresses GNB1, P62873. As to the method: as §1
For the next experiment, the target named is MRPL39, Q9NYK5. As to the method: as §1
The next experiment addresses MRPS5, P82675. The procedure: as §1
The next experiment concerns the target NACA. The procedure: as §1
The target in another experiment is PCBP2, Q15366. As to the method:
as §1

A further experiment concerns the target PEBP1, P30086. As to the method:
as §1

In the next experiment the target is PRPF4, O43172. As to the method:
as §1

In the next experiment the target is PYCR2, Q96C36. The procedure:
as §1

The target of the next experiment is RPUSD4, Q96CM3. The procedure: as §1
The target of another experiment is SLU7, O95391. The procedure:
as §1

The target in a further experiment is SNRNP27, Q8WVK2. As to the method: as §1
The target in another experiment is TOR1AIP1, Q5JTV8. As to the method:
as §1

A further experiment has as its target EIF1, P41567. As to the method:
as §1

In a further experiment the target is EIF4H, Q15056. The procedure: as §1
The next experiment has as its target LSM12, Q3MHD2. As to the method:
as §1

The next experiment deals with PARK7, Q99497. As to the method: as §1
The target of a further experiment is EIF2AK2, P19525. The procedure:
as §1

The target of the next experiment is RAVER1, Q8IY67. As to the method:
as §1

The target of a further experiment is TMEM11, P17152. As to the method: as §1
The target of the next experiment is ELOVL5, Q9NYP7. The procedure:
as §1

The next experiment has as its target GDI2, P50395. The procedure: as §1
A further experiment addresses HADHB, P55084. The procedure:
as §1

The next experiment has as its target LARP4, Q71RC2. As to the method:
as §1

For another experiment, the target named is NIPSNAP1, Q9BPW8. The procedure: as §1
Another experiment deals with PDF, Q9HBH1. The procedure: as §1
For another experiment, the target named is PHC2, Q8IXK0. The procedure:
as §1

A further experiment deals with POP1, Q99575. The procedure: as §1
A further experiment addresses RNPS1, Q15287. The procedure: as §1
A further experiment addresses SHMT1, P34896. The procedure:
as §1

A further experiment concerns the target SLC25A1, P53007. As to the method: as §1
For the next experiment, the target named is SLC30A7, Q8NEW0. As to the method:
as §1

The next experiment concerns the target UBQLN1, Q9UMX0. As to the method:
as §1

The next experiment addresses ZNF593, O00488. As to the method:
as §1

The list shows a part of the results. The list holds hits alone, and they repeat only in part.

As for MDDGNIRLSRNPSGN [SNHG8_2], the “PRISMA enrichment of interactor (log2)” value with EIF2S2, P20042 stood at 5.3; with MRPS11, P82912, 4.33; in the experiment with TACO1, Q9BSH4 it was 5.91.

LLGLMGTGPAWWVVS [ABR]: the “PRISMA enrichment of interactor (log2)” value with FAM168B, A1KXE4 was found to be 4.23; with GNB1, P62873 it was 7.36; with MRPL39, Q9NYK5 it was 4.64; with MRPS5, P82675 it was 5.64; with NACA, 5; with PCBP2, Q15366, 6.99. In addition, the “PRISMA enrichment of interactor (log2)” value was 5.09 with PEBP1, P30086; 4.34 with PRPF4, O43172; 9.46 with PYCR2, Q96C36; 4.59 with RPUSD4, Q96CM3; 5.35 with SLU7, O95391; 4.2 in the experiment with SNRNP27, Q8WVK2. Further, the “PRISMA enrichment of interactor (log2)” value with TOR1AIP1, Q5JTV8 was 7.41.

Turning to ALLQFWFVLCVHSVI [PDZRN3-AS1], the “PRISMA enrichment of interactor (log2)” value with EIF1, P41567 came to 5; with EIF4H, Q15056, 4.55; with LSM12, Q3MHD2 it was 4.43; in the experiment with PARK7, Q99497, 4.84; in the experiment with PCBP2, Q15366, 4.15.

In the case of GLVERGIEKSRRAYK [JHDM1D-AS1], the “PRISMA enrichment of interactor (log2)” value with EIF2AK2, P19525 amounted to 7.02; with RAVER1, Q8IY67, 4.68; with TMEM11, P17152 it was 5.06.

For the molecule CSLKIPSARHFSWRK [PRR34-AS1], the “PRISMA enrichment of interactor (log2)” value with ELOVL5, Q9NYP7 amounted to 5.29; with GDI2, P50395 it was 5.19; in the experiment with HADHB, P55084, 6.03; with LARP4, Q71RC2 it was 5.27; with NIPSNAP1, Q9BPW8, 4.89; with PDF, Q9HBH1 it was 5.07. The “PRISMA enrichment of interactor (log2)” value in the experiment with PHC2, Q8IXK0 amounted to 4.17; in the experiment with POP1, Q99575 it was 6.83; in the experiment with RNPS1, Q15287, 5.62; with SHMT1, P34896, 6.59; with SLC25A1, P53007 it was 4.52; with SLC30A7, Q8NEW0, 4.24. Besides, the “PRISMA enrichment of interactor (log2)” value came to 5.62 with UBQLN1, Q9UMX0 and 4.32 in the experiment with ZNF593, O00488.

The record behind these values is the supplement of paper PMC10032668.
